According to patent US20170233492A1 (PHARMABCINE, published 2017):
No constants are given. Whether binding was seen depends on the method and setting. Some results given as binding are weak or reduced against the parent protein; the word gives no strength.

Amino acid sequences for entries named in this document (tags omitted). Residues count along the entry.
UniProt P16056, residues 25-931: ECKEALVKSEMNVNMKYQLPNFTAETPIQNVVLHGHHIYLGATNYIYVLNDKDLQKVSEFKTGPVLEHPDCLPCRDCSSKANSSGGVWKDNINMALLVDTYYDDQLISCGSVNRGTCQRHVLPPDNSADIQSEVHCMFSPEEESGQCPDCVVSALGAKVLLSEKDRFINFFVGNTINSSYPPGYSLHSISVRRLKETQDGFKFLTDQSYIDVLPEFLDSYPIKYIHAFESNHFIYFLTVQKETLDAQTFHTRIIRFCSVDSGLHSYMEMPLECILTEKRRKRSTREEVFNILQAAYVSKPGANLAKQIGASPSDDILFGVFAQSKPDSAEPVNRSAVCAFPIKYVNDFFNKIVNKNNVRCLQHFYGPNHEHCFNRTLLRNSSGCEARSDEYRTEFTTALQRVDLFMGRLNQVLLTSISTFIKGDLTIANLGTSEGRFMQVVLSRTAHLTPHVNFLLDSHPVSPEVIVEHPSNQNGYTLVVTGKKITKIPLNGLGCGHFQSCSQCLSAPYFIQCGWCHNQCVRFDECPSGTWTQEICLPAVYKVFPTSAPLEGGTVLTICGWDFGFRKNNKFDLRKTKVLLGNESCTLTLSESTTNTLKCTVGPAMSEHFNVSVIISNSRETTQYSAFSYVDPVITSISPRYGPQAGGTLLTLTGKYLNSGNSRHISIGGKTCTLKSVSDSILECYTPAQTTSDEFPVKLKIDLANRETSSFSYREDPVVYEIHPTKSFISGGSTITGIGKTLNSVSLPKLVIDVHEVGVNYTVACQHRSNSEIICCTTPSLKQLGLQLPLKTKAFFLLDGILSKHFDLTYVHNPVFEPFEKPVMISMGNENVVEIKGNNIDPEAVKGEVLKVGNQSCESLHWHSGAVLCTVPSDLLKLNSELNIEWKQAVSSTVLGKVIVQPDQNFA

Key:
mouse c-Met-Fc [1] = biological target: T1, mouse c-Met-Fc (mouse, UniProt P16056 25-931, limits assumed); test: SPR (BIAcore), mouse-c-Met immobilized on chip, antibody flowed
T1 construct: Bought reagent (R&D system); also called mouse-c-Met (R&D system); not shown: Fc part

mouse c-Met-Fc [2] = biological target: T1, mouse c-Met-Fc; test: SPR (BIAcore), c-Met immobilized on chip, antibody flowed
[3] = biological target: Recombinant human HGF R/c-Met Fc chimera (R&D systems, cat no. 358-MT/CF) (human) (UniProt P08581); test: as above
[4] = biological target: Recombinant human HGF R/c-Met Fc chimera (R&D systems, cat no. 358-MT/CF) (human) (UniProt P08581); test: SPR (BIAcore), human-c-Met immobilized on chip, antibody flowed

Measured: binding

B1: 1E4-IgG (antibody, V domains shown)
VH: QVQLVQSGAEVKKPGESLRISCQGSGYSFPTHWITWVRQMPGKGLEWMGTIDPTDSYNFYGPSFQGHVTISADSSSSTAYLQWSSLKASDTAMYYCARDGNYYDSRGYYYDTFDMWGQGTLVTVSS
VL: DIQMTQSPSFLSASVGDRVTITCRASQGISTYLAWYQQKPGTAPKLLIYSASTLESGVPSRFSGSGSGTDFTLTISSLQPEDSATYYCQQADSFPLTFGGGTKVEIKR
notes: also called 1E4 antibody; anti-c-Met IgG (1E4-IgG)
binds: all assays above
